# Assay results from publication PMC3534021, “Structure of the TPR Domain of AIP: Lack of Client Protein Interaction with the C-Terminal α-7 Helix of the TPR Domain of AIP Is Sufficient for Pituitary Adenoma Predisposition” (PLoS ONE, 2012).
# These are yes or no findings as the source states them, for the method shown. For some assays here: In cells and extracts the contact can be indirect. For some assays here: Sequences can lack the tags named with a protein.
# T1: wild-type AIP, Flag-tagged (pCI-neo-AIP-Flag) and Myc-tagged (pcDNA 3.0-Myc-AIP) copies (human), O00170
# T1 chain: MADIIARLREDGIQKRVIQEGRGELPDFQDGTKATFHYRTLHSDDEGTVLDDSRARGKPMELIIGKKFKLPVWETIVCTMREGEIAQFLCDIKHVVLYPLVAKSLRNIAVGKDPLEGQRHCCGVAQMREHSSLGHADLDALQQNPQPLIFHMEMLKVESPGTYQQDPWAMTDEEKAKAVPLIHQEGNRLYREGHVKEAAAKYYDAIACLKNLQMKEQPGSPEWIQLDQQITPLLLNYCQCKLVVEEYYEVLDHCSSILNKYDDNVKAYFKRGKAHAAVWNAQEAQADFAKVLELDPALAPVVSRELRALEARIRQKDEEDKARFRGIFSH
# Tests used:
# [1] = target: T1, wild-type AIP, Flag-tagged …; assay: co-IP; GH3 cells co-transfected with AIP-Flag and Myc-AIP; lysate (~150 µg protein) with 1 µg TOMM20 peptide; reciprocal immunoprecipitation with anti-Myc or anti-Flag, Protein G Sepharose; blots for Myc and Flag; conditions: remark: other sources report otherwise
# [2] = target: TPR domain (residues 166–330) of human AIP (aryl hydrocarbon receptor interacting protein), wild type (human) (UniProt O00170); assay: crystal structure; AIP TPR-domain mixed with peptide at a 1:20 molar ratio; crystals from 1 M ammonium sulphate, 1% PEG 3350, 0.1 M Bis-Tris pH 5.5, 14°C; both purified
Binder,binding [1],binding [2]
"wild-type AIP, Flag-tagged (pCI-neo-AIP-Flag) and Myc-tagged (pcDNA 3.0-Myc-AIP) copies, O00170 1-330 (protein) MADIIARLREDGIQKRVIQEGRGELPDFQDGTKATFHYRTLHSDDEGTVLDDSRARGKPMELIIGKKFKLPVWETIVCTMREGEIAQFLCDIKHVVLYPLVAKSLRNIAVGKDPLEGQRHCCGVAQMREHSSLGHADLDALQQNPQPLIFHMEMLKVESPGTYQQDPWAMTDEEKAKAVPLIHQEGNRLYREGHVKEAAAKYYDAIACLKNLQMKEQPGSPEWIQLDQQITPLLLNYCQCKLVVEEYYEVLDHCSSILNKYDDNVKAYFKRGKAHAAVWNAQEAQADFAKVLELDPALAPVVSRELRALEARIRQKDEEDKARFRGIFSH",no binding,–
"TPR domain (residues 166–330) of human AIP (aryl hydrocarbon receptor interacting protein), wild type (domain or fragment, UniProt O00170 166-330, looked up, Residues Asp 172 to Arg 325 were visible in the TOMM20 peptide structure; also called AIP TPR-domain; WT) DPWAMTDEEKAKAVPLIHQEGNRLYREGHVKEAAAKYYDAIACLKNLQMKEQPGSPEWIQLDQQITPLLLNYCQCKLVVEEYYEVLDHCSSILNKYDDNVKAYFKRGKAHAAVWNAQEAQADFAKVLELDPALAPVVSRELRALEARIRQKDEEDKARFRGIFSH",–,no binding
